According to article PMC6135752:
Results are given in words; binding and its absence hold for the method and conditions named. Binding seen in cells or lysates may run through a third protein. Some entries that bind do so weakly or less than the wild type.

By UniProt entry, the sequences of proteins in these tests, tags left out. Where a name states a change or a piece, a line headed by the entry shows the natural chain unless it says otherwise.
UniProt Q96EB6: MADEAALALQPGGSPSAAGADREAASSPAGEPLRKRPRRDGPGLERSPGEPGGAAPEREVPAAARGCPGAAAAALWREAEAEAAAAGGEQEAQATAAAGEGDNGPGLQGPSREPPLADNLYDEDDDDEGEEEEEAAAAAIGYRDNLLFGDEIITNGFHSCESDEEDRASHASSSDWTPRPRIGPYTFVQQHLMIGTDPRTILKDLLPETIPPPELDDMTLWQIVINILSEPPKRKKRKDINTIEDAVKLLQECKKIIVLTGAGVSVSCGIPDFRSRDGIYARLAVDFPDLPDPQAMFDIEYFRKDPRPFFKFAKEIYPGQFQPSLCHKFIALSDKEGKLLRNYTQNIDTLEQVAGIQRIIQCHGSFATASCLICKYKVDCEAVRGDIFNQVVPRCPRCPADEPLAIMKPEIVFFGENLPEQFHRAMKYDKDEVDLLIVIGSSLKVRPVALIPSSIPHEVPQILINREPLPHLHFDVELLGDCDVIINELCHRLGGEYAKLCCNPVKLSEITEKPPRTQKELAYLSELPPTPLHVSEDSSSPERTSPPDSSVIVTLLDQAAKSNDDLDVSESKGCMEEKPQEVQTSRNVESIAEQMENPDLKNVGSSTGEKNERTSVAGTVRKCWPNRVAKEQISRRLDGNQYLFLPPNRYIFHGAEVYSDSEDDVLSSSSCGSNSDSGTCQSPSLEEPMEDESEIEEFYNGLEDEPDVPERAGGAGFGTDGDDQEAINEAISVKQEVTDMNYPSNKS
UniProt P61809: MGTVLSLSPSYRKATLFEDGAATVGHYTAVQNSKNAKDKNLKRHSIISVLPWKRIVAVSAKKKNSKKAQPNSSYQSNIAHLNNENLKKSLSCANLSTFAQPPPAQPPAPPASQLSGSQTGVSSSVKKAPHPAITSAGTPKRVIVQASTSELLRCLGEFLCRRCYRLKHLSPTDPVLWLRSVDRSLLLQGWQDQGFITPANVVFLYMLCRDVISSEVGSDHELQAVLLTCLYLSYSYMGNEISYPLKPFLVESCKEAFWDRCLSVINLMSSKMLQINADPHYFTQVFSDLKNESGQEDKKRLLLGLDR

Columns and labels:
[1] = target: Recombinant His-tagged mouse CDK5 wild type (mouse) (UniProt P49615); assay: pull-down; 10 ug purified His-CDK5 WT or His-Ac-CDK5 bound to Ni-NTA resin in PBS with protease inhibitors and 10 mM nicotinamide; incubated with pre-cleared lysate (2 mg) of HEK293 cells transfected with p35-FLAG or p25-FLAG, 4 °C overnight; washed with PBS; immunoblot with anti-FLAG, anti-His and anti-Ac-CDK5; only the target purified
[2] = target: Recombinant His-tagged mouse CDK5 acetylated at K33 (mouse) (UniProt P49615); assay: as above
SIRT2 = target: T1, SIRT2 (UniProt Q8IXJ6); assay: co-IP; reciprocal immunoprecipitation and immunoblot with HEK293 cells; RIPA buffer, 4 °C overnight
T1 sequence: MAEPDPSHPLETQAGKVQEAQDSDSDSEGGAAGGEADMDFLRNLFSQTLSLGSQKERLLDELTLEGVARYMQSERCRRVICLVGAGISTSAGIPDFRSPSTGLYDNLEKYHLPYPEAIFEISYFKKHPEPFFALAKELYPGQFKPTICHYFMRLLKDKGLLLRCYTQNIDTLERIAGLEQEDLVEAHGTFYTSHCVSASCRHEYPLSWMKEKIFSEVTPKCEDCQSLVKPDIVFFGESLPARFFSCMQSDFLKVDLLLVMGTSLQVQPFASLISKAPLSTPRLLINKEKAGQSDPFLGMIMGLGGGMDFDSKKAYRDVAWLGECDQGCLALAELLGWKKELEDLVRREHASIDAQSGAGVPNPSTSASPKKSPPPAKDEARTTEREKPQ

SIRT1 (human) = SIRT1 (human) (UniProt Q96EB6); assay: as above

| Substance | binding [1] | binding [2] | binding (SIRT2) | binding (SIRT1 (human)) |
| --- | --- | --- | --- | --- |
| p25-FLAG (from UniProt P61809 99-307) (domain or fragment) | binds | binds | – | – |
| CDK5 in HEK293 cells (co-immunoprecipitation) (from UniProt P49615 1-292) (enzyme) | – | – | binds | binds |
| p35-FLAG (from UniProt P61809 1-307) | binds | binds | – | – |
